In test [1] the target is PEA-15 (Phosphoprotein Enriched in Astrocytes of 15 kDa) (human (endogenous in U87MG)) (UniProt Q15121). Briefly: proximity ligation; Duolink in situ PLA of endogenous proteins in fixed, permeabilized U251MG cells, serum starved 18 h then 100 ng/ml EGF for 10 min; antibody to PEA-15 and either clathrin or AP-2; PEA-15 antibodies alone as negative control.
Test [2] has the same target. The test can be described thus: co-IP; U87MG lysate, immunoprecipitation of PEA-15 with anti-PEA-15 antibodies; clathrin heavy chain detected by Western blot. On the technique in general: A western blot detects proteins with antibodies after separation by electrophoresis.

Sequences of proteins named here, by UniProt entry; tags and fusion partners are left off.
UniProt Q15121: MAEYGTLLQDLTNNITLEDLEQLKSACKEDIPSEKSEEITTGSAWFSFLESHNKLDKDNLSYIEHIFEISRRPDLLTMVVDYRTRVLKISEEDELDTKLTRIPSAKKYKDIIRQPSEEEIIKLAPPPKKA
UniProt O95782: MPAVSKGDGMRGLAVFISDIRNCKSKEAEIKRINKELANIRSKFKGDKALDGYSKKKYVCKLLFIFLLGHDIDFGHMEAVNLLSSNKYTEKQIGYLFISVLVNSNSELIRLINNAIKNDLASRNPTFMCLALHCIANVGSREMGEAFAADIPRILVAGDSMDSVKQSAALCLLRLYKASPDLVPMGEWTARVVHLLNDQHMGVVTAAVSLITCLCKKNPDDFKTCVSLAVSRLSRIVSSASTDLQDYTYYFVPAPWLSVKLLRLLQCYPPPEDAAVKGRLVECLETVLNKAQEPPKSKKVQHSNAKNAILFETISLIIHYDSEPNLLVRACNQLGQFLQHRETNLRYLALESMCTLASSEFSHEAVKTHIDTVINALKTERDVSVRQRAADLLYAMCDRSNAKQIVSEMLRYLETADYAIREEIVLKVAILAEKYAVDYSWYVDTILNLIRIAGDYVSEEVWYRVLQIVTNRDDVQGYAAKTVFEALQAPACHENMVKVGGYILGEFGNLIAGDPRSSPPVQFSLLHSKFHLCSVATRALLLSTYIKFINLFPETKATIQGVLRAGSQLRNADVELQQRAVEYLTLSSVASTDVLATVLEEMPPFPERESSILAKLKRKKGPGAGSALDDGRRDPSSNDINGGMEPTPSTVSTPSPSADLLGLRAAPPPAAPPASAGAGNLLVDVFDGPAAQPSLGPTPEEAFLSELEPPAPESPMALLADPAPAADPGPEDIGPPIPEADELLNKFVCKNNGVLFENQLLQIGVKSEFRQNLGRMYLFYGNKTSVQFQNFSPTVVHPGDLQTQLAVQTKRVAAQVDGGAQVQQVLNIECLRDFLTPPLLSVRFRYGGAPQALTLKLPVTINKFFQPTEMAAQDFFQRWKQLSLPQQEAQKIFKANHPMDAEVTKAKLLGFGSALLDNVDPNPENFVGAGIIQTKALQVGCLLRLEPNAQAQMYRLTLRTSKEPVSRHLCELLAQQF
UniProt Q00610: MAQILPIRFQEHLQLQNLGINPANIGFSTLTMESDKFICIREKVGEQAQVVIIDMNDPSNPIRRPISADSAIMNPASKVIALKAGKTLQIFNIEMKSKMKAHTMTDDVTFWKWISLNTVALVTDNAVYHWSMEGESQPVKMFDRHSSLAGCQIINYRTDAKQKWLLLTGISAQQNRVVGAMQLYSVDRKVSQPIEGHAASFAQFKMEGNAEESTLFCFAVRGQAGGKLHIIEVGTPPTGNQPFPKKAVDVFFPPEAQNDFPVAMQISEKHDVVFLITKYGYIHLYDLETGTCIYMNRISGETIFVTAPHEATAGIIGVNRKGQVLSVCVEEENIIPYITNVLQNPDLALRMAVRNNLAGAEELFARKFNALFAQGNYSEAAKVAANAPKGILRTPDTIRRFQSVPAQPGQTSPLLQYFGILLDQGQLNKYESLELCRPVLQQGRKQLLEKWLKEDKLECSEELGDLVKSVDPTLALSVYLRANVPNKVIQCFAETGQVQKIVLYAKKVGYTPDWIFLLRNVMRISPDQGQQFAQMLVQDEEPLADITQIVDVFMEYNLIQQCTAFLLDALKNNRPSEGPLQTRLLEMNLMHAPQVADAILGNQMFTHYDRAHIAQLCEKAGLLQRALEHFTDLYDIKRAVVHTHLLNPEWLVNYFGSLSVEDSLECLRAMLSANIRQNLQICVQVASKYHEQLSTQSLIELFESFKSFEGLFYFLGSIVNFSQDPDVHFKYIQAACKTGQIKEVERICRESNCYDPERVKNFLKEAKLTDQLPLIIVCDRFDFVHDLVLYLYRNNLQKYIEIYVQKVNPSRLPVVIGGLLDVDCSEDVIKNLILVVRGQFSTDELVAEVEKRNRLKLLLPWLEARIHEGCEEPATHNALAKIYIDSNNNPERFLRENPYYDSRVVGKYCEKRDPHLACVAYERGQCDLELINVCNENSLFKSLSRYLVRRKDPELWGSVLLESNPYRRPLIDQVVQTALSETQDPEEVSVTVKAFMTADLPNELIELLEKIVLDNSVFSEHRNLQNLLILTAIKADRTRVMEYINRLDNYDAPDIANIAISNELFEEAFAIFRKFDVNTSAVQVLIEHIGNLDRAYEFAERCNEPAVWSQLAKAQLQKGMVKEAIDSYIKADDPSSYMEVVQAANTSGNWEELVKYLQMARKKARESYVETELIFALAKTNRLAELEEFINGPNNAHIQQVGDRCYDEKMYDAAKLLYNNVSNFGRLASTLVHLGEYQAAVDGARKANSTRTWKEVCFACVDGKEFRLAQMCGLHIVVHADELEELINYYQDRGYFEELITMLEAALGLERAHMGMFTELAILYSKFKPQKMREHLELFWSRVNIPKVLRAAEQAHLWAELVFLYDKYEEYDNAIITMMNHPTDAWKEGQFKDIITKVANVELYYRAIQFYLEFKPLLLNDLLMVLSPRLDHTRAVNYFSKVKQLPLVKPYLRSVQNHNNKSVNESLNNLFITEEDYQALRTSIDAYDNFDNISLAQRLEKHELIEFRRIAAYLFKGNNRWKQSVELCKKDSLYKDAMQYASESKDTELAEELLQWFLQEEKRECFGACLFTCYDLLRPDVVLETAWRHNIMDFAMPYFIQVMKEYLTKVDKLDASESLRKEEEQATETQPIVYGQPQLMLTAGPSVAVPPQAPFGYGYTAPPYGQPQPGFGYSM

No constants are given. Whether binding was seen depends on the method and setting. Binding seen in cells or lysates may run through a third protein. Some entries that bind do so weakly or less than the wild type.

Regarding “AP-2 complex subunit alpha-1 (from UniProt O95782 1-977)”, in test [1], the binding result was “binds”.

“Clathrin heavy chain 1 (from UniProt Q00610 1-1675)”: the binding entry in test [2] and in test [1] was “binds” throughout.

These data come from PMC8494857.
